The data set relates to anti-CsA antibody. Briefly: KD measurement by fluorescence polarization of Fluorescein-labeled CsA tracer and binding equilibrium estimates. Particulars: calculated for equilibrium with excess antibody.

As for `Nc1nc2cccc(-c3ccc(CN4CCS(=O)(=O)CC4)cc3)n2n1` [Metabolite], the “% Bound” value is 10% (First Incubation Step, Metabolite 83 nM, Cyclosporine 17 nM) and 0.3% (Second Incubation Step, Metabolite 2.5 nM, CsA 0.5 nM).

The values above are taken from patent US8288111B2 (Abbott Laboratories, priority 2007, dated 2012).
